Patent US20190016764A1 (KYUNGPOOK NATIONAL UNIVERSITY INDUSTRY ACADEMIC COOPERATION …, published 2019)
Results are given in words; binding and its absence hold for the method and conditions named. Some entries that bind do so weakly or less than the wild type. Sequences can lack the tags named with a protein.

Tests used:
[1] = target: T1, soluble EPCR (endothelial protein C receptor) (UniProt Q9UNN8); experiment: solid-phase ELISA on sEPCR
T1 sequence (looked up): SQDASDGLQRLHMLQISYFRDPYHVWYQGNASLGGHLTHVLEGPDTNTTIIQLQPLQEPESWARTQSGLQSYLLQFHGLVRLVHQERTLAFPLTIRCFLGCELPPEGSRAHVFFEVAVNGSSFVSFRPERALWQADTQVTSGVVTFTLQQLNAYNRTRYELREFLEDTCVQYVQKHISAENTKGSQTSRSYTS

[2] = target: T1, soluble EPCR (endothelial protein C receptor); experiment: summary of Example 3 (solid-phase ELISA on sEPCR)
[3] = target: T2, EPCR in mouse vena cava (mouse, UniProt Q64695 18-242); experiment: immunohistochemistry of mouse vena cava after i.v. injection of the fluorescence-labelled molecule; colocalisation with anti-EPCR staining
T2 construct: whole, on cells; Endogenous receptor in tissue sections of C57BL/6 mice; also called EPCR (mouse, in vivo)
T2 sequence (looked up): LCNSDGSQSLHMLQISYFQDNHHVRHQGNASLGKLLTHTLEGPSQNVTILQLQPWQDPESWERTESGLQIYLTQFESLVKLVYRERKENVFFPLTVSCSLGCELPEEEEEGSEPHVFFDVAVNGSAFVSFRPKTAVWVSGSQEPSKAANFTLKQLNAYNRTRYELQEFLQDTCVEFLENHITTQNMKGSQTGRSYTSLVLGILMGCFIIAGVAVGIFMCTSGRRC

Measured: binding

B1: TFMG (TRAP-ferritin monomer fragment-linker-PC-Gla fusion polypeptide) (other)
chain: MGGTTFLLRNASGHMSSQIRQNYSTDVEAAVNSLVNLYLQASYTYLSLGFYFDRDDVALEGVSHFFRELAEEKREGYERLLKMQNQRGGRIFLQDIKKPAEDEWGKTPDAMKAAMALEKKLNQALLDLHALGSARTDPHLCDFLETHFLDEEVKLIKKMGDHLTNLHRLGGGSEFVDGGGSGTSGPLGLAGANSFLEELRHSSLERECIEEICDFEEAKEIFQNVDDTLAFWSKHVLEHHHHHH
notes: also called TMFG; TFME
binds: [1] | [2] | [3]

B2: TFG (TRAP-ferritin monomer fragment-PC-Gla fusion polypeptide) (other)
chain: MGGTTFLLRNASGHMSSQIRQNYSTDVEAAVNSLVNLYLQASYTYLSLGFYFDRDDVALEGVSHFFRELAEEKREGYERLLKMQNQRGGRIFLQDIKKPAEDEWGKTPDAMKAAMALEKKLNQALLDLHALGSARTDPHLCDFLETHFLDEEVKLIKKMGDHLTNLHRLGGGSEFVDGGGSGTSANSFLEELRHSSLERECIEEICDFEEAKEIFQNVDDTLAFWSKHVLEHHHHHH
notes: also called TRAP-ferritin-PC-Gla; TFG nanocage
binds: [1] | [2] | [3]
